The target in this experiment is ALPP-His protein (the sheet prints only '% αALPP CAR'). The experiment in a line: flow cytometry of transduced primary human T cells stained with 0.1 ug ALPP-His protein and an anti-His antibody [right panel].

These are yes or no findings as the source states them, for the method shown. Some results given as binding are weak or reduced against the parent protein; the word gives no strength.

B1: A02-28H CAR (protein)
chain: QVQLKESGPGLVAPSQSLSITCTVSGFSLTSYGVSWVRQPPRKGLEWLGVIWEDGSTNYHSALISRLSINKDNSKSQVFLKLNSLQTDDTATYYCAKPHYGSSYVGAMEYWGQGTSVTVSSEKGRSGGGGSGGGGSGGGGSDIQMTQSPASLTASVGETVTITCRASENIYSYVAWYQQKQGKSPQFLVYNAKSLAEGVPSRFSGSGSGTQFSLKINSLQPEDFGNYYCQHHYVSPWTFGGGTKLEIRRYVIEVMYPPPYLDNEKSNGTIIHVKGKHLCPSPLFPGPSKPMALIVLGGVAGLLLFIGLGIFFRFSVVKRGRKKLLYIFKQPFMRPVQTTQEEDGCSCRFPEEEEGGCELRVKFSRSADAPAYQQGQNQLYNELNLGRREEYDVLDKRRGRDPEMGGKPRRKNPQEGLYNELQKDKMAEAYSEIGMKGERRRGKGHDGLYQGLSTATKDTYDALHMQALPPR
On to B1, for which the binding entry is reported as “binds”.

(Values after patent US20220125845A1 (GUANGDONG TCRCURE BIOPHARMA TECHNOLOGY, published 2022).)
